PubChem BioAssay AID743121 – NCATS | 2013
Assay: 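Genes whose silencing strengthens cell killing by camptothecin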 (primary screen). Cells: MDA-MB-231 cells, a human breast cancer line. Reagents: single siRNA against human genes, 20 nM siRNA (0.8 pmol per well). Duration: 120 h (drug added 48 h after transfection, read 72 h later). Conditions: camptothecin 20 nM (about EC30) for 72 h; vehicle 0.1% DMSO in parallel plates. Measured: 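CellTiter-Glo ATP signal, scaled to control siRNA as percent viability; sensitisation given as log2 of untreated divided by camptothecin-treated viability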. Reading the numbers: log2 vehicle/camptothecin viability: higher = stronger sensitisation to camptothecin. Call rule: 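Each gene scored by redundant siRNA activity (RSA) over its individual siRNA ratios; a gene is called active at p < 0.001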.
This is a random part of about 26,000 reagents. In the full data, 167 (0.63%) are marked active. 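Calls are per gene from RSA p-values that are not deposited; an individual active-marked siRNA can sensitise only weakly.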 A number with no mark means an inactive call. The numbers tell different reagents against one gene apart. Not all columns of the deposit are shown. No sequences are given here.

SLC9A8 #1
- log2 vehicle/camptothecin viability: -0.189

SLC9A8 #2
- log2 vehicle/camptothecin viability: 0.229

SLC9A8 #3
- log2 vehicle/camptothecin viability: -0.508

SLC9A8 #4
- log2 vehicle/camptothecin viability: 0.35

ADGRA2 (adhesion G protein-coupled receptor A2) #1
- log2 vehicle/camptothecin viability: -0.332

ADGRA2 (adhesion G protein-coupled receptor A2) #2
- log2 vehicle/camptothecin viability: 1.43

ADGRA2 (adhesion G protein-coupled receptor A2) #3
- log2 vehicle/camptothecin viability: 0.113

ADGRA2 (adhesion G protein-coupled receptor A2) #4
- log2 vehicle/camptothecin viability: 0.0938

SNAP25 (synaptosome associated protein 25) #1
- log2 vehicle/camptothecin viability: -0.122

SNAP25 (synaptosome associated protein 25) #2
- log2 vehicle/camptothecin viability: -0.174

SNAP25 (synaptosome associated protein 25) #3
- log2 vehicle/camptothecin viability: -0.0991

SNAP25 (synaptosome associated protein 25) #4
- log2 vehicle/camptothecin viability: 0.273

ZRANB2 (zinc finger RANBP2-type containing 2) #1
- log2 vehicle/camptothecin viability: -0.605

ZRANB2 (zinc finger RANBP2-type containing 2) #2
- log2 vehicle/camptothecin viability: -0.0275

ZRANB2 (zinc finger RANBP2-type containing 2) #3
- log2 vehicle/camptothecin viability: -0.39

ZRANB2 (zinc finger RANBP2-type containing 2) #4
- log2 vehicle/camptothecin viability: -0.199

Part of the list above, set out differently.
{"Target gene": "ADGRA2 (adhesion G protein-coupled receptor A2)", "siRNA no.": 4, "log2 vehicle/camptothecin viability": 0.0938}
{"Target gene": "SNAP25 (synaptosome associated protein 25)", "siRNA no.": 1, "log2 vehicle/camptothecin viability": -0.122}
{"Target gene": "SNAP25 (synaptosome associated protein 25)", "siRNA no.": 2, "log2 vehicle/camptothecin viability": -0.174}

The results go on.
PIK3C3 (phosphatidylinositol 3-kinase catalytic subunit type 3) #1
- log2 vehicle/camptothecin viability: -0.285

PIK3C3 (phosphatidylinositol 3-kinase catalytic subunit type 3) #2
- log2 vehicle/camptothecin viability: -0.353

PIK3C3 (phosphatidylinositol 3-kinase catalytic subunit type 3) #3
- log2 vehicle/camptothecin viability: -0.352

PIK3C3 (phosphatidylinositol 3-kinase catalytic subunit type 3) #4
- log2 vehicle/camptothecin viability: -0.184

SHH (sonic hedgehog signaling molecule) #1
- log2 vehicle/camptothecin viability: 0.236

SHH (sonic hedgehog signaling molecule) #2
- log2 vehicle/camptothecin viability: -0.116

SHH (sonic hedgehog signaling molecule) #3
- log2 vehicle/camptothecin viability: 0.987

OR2T8 (olfactory receptor family 2 subfamily T member 8) #1
- log2 vehicle/camptothecin viability: -0.139

OR2T8 (olfactory receptor family 2 subfamily T member 8) #2
- log2 vehicle/camptothecin viability: -0.13

OR2T8 (olfactory receptor family 2 subfamily T member 8) #3
- log2 vehicle/camptothecin viability: -0.384

MCHR2 (melanin concentrating hormone receptor 2) #1
- log2 vehicle/camptothecin viability: -0.356

MCHR2 (melanin concentrating hormone receptor 2) #2
- log2 vehicle/camptothecin viability: -0.293

MCHR2 (melanin concentrating hormone receptor 2) #3
- log2 vehicle/camptothecin viability: -0.052

MCHR2 (melanin concentrating hormone receptor 2) #4
- log2 vehicle/camptothecin viability: 0.044

EPS15L1 (epidermal growth factor receptor pathway substrate 15 like 1) #1
- log2 vehicle/camptothecin viability: 0.924

EPS15L1 (epidermal growth factor receptor pathway substrate 15 like 1) #2
- log2 vehicle/camptothecin viability: -0.131

EPS15L1 (epidermal growth factor receptor pathway substrate 15 like 1) #3
- log2 vehicle/camptothecin viability: 0.914

EPS15L1 (epidermal growth factor receptor pathway substrate 15 like 1) #4
- log2 vehicle/camptothecin viability: -0.153

KLK3 (kallikrein related peptidase 3) #1
- log2 vehicle/camptothecin viability: -0.12

KLK3 (kallikrein related peptidase 3) #2
- log2 vehicle/camptothecin viability: -0.0505

KLK3 (kallikrein related peptidase 3) #3
- log2 vehicle/camptothecin viability: 1.39

KLK3 (kallikrein related peptidase 3) #4
- log2 vehicle/camptothecin viability: -0.321

KLK3 (kallikrein related peptidase 3) #5
- log2 vehicle/camptothecin viability: 0.0437

KLK3 (kallikrein related peptidase 3) #6
- log2 vehicle/camptothecin viability: -0.236

KLK3 (kallikrein related peptidase 3) #7
- log2 vehicle/camptothecin viability: -0.245

KLK3 (kallikrein related peptidase 3) #8
- log2 vehicle/camptothecin viability: 0.163
